We go through one molecule from paper PMC11289521.

Results are given in words; binding and its absence hold for the method and conditions named. Binding seen in cells or lysates may run through a third protein. Some results given as binding are weak or reduced against the parent protein; the word gives no strength. Sequences can lack the tags named with a protein.

The target of this assay is T1, β-1, 4-galactosyltransferase 1 (B4galt1), endogenous (mouse (endogenous in MEFs)) (UniProt P15535).
T1 sequence: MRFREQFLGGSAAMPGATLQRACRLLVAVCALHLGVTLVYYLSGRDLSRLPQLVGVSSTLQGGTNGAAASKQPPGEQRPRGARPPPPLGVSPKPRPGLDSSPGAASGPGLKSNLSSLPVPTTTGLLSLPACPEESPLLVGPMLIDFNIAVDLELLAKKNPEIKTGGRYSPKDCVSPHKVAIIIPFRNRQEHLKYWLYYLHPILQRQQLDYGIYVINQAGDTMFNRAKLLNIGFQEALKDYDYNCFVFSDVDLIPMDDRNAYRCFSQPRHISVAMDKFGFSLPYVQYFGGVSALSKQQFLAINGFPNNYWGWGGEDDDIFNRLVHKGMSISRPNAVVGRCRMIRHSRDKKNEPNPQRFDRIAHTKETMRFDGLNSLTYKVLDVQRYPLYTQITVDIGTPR
Nature of the assay: proximity ligation; Duolink In Situ PLA on fixed MEFs stably expressing St6gal1-GFP (Gphr-/-GPHR-3F and Gphr-/-Vec); goat anti-B4galt1 and mouse anti-GFP primary antibodies; signal when the epitopes are <40 nm apart; B4galt1 antibody alone as background; number and area of dots significantly decreased in Gphr-/-Vec MEFs.

B1: β-galactoside α-2,6-sialyltransferase 1-GFP (St6gal1-GFP) (enzyme, UniProt Q64685 1-403)
chain: MIHTNLKRKFSCFVLVFLLFAIICVWKKGSDYEALTLQAKVFQMPKSQEKVAVGPAPQAVFSNSKQDPKEGVQILSYPRVTAKVKPQPSLQVWDKDSTYSKLNPRLLKIWRNYLNMNKYKVSYKGPGPGVKFSVEALRCHLRDHVNVSMIEATDFPFNTTEWEGYLPKENFRTKAGPWHKCAVVSSAGSLKNSQLGREIDNHDAVLRFNGAPTDNFQQDVGTKTTIRLVNSQLVTTEKRFLKDSLYTEGILILWDPSVYHADIPQWYQKPDYNFFETYKSYRRLHPSQPFYILKPQMPWELWDIIQEISPDLIQPNPPSSGMLGIIIMMTLCDQVDIYEFLPSKRKTDVCYYHQKFFDSACTMGAYHPLLFEKNMVKHLNEGTDEDIYLFGKATLSGFRNNRC
As to B1, the binding entry was “binds”.
